# Assay results: the supplement of paper PMC10849652
# By UniProt entry, the sequences of proteins in these tests, tags left out. Where a name states a change or a piece, a line headed by the entry shows the natural chain unless it says otherwise.
# UniProt Q9ULX3: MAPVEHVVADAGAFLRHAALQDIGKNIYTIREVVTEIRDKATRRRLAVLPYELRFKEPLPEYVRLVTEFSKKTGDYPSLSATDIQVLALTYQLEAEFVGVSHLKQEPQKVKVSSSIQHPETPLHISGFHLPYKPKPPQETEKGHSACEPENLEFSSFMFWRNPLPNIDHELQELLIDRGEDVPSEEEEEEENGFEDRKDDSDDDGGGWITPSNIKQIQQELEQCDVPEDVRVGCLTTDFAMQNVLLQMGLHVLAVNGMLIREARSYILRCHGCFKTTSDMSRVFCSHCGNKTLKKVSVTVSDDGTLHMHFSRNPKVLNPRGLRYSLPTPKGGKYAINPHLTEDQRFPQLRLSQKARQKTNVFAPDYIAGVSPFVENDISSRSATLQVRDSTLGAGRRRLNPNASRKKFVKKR
# UniProt Q16656: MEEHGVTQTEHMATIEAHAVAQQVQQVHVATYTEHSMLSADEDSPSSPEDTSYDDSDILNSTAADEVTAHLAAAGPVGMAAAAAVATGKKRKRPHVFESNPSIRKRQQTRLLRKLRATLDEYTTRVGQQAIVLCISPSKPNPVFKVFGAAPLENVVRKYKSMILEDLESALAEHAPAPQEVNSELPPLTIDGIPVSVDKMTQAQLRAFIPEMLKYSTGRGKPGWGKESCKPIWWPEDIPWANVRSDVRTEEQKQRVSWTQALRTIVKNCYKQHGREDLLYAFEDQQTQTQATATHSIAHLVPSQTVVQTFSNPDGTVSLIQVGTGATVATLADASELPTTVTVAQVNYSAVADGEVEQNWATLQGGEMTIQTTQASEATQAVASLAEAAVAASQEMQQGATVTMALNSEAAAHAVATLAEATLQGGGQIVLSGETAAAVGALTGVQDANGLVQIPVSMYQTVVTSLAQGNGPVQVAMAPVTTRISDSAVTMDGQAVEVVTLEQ
# UniProt Q9Y314: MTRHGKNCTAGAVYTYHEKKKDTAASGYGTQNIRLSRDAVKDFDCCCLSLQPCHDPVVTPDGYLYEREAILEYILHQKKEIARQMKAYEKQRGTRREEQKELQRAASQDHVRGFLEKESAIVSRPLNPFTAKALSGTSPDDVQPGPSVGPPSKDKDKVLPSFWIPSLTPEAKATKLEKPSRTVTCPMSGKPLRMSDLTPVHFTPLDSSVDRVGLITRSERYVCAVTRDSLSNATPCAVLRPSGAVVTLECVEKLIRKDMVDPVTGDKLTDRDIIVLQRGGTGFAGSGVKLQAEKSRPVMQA
# UniProt O15118: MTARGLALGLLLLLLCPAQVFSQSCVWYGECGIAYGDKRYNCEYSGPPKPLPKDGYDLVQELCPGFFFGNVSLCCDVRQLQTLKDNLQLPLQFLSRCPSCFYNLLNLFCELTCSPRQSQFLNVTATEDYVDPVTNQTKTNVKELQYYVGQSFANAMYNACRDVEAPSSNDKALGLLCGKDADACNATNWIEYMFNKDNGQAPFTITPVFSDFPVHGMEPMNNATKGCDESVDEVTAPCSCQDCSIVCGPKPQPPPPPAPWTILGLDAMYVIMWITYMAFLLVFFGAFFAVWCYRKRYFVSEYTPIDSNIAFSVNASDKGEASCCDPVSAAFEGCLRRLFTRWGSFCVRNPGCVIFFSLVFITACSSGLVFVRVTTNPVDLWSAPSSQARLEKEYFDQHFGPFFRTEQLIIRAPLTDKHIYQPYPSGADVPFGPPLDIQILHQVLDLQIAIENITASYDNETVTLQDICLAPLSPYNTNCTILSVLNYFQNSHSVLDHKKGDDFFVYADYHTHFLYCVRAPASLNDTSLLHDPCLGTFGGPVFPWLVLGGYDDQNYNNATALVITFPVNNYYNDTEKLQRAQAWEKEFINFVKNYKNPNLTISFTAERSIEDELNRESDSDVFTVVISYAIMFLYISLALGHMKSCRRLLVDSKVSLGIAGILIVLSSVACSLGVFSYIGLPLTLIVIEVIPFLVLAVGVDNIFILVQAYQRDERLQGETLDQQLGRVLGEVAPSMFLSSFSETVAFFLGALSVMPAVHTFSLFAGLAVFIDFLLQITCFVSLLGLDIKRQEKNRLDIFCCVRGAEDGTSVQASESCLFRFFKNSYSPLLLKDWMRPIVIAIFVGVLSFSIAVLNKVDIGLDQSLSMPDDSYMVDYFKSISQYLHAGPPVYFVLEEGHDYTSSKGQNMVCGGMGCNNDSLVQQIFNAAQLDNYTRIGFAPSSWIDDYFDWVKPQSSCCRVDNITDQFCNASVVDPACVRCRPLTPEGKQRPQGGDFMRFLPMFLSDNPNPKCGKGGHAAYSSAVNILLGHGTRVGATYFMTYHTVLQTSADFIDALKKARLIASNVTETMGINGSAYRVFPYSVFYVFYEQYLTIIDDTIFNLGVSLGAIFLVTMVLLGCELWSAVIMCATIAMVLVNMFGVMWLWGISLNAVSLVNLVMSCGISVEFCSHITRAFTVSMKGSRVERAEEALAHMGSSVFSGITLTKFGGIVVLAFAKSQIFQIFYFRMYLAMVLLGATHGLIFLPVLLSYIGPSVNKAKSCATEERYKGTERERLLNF
# UniProt Q8NBF2: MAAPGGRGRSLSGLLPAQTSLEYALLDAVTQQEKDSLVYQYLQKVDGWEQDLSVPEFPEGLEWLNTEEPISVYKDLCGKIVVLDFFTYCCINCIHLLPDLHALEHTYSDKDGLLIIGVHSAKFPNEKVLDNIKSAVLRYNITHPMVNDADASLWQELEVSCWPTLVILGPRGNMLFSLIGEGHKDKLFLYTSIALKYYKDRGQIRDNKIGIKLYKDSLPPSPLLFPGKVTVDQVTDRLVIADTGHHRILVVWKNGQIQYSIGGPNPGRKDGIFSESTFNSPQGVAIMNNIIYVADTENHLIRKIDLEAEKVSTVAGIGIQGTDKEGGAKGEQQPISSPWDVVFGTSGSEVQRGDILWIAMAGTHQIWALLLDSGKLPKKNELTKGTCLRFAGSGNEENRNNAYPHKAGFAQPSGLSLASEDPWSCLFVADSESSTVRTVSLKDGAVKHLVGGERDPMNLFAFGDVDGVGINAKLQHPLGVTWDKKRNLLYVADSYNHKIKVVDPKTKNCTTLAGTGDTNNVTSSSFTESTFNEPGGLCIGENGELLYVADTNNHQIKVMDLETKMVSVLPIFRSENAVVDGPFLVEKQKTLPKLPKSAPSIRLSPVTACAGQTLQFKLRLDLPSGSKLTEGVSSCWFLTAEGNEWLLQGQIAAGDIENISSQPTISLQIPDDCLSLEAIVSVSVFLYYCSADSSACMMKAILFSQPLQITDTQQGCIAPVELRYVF
# UniProt Q9Y2X3: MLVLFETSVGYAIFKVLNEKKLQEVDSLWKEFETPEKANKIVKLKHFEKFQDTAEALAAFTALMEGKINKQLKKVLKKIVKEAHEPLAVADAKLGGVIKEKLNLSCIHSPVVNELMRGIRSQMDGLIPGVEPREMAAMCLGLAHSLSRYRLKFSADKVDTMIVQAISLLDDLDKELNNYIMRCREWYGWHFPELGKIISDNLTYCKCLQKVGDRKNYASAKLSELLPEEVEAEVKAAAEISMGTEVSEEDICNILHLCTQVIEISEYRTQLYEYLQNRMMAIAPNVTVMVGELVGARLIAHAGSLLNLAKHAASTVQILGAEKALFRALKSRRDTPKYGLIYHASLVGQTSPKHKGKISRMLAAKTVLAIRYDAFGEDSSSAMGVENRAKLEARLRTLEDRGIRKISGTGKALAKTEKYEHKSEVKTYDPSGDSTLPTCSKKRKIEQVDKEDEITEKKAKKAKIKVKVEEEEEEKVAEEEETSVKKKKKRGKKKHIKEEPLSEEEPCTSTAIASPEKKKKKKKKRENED
# UniProt Q7RTP0: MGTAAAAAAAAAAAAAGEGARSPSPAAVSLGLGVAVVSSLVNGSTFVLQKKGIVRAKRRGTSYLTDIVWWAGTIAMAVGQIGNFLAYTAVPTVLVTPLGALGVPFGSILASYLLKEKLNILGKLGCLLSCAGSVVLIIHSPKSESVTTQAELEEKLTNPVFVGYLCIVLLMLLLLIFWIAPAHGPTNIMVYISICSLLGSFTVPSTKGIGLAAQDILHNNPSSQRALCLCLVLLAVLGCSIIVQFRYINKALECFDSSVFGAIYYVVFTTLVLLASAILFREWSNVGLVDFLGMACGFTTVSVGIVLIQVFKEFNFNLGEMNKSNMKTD
# UniProt Q13952: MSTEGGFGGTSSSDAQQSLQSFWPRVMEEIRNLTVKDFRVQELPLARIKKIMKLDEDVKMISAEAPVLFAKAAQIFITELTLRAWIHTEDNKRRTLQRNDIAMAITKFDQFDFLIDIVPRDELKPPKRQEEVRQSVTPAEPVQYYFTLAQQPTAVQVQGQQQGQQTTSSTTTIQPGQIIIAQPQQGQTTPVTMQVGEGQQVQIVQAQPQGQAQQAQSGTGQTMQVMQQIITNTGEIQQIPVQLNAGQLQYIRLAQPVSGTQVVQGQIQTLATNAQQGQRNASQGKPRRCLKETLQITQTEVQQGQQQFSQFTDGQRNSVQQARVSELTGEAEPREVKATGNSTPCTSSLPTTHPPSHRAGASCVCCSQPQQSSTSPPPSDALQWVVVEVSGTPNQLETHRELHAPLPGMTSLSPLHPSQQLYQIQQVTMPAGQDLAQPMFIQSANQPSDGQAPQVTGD
# UniProt Q86UT6, whole entry, looked up: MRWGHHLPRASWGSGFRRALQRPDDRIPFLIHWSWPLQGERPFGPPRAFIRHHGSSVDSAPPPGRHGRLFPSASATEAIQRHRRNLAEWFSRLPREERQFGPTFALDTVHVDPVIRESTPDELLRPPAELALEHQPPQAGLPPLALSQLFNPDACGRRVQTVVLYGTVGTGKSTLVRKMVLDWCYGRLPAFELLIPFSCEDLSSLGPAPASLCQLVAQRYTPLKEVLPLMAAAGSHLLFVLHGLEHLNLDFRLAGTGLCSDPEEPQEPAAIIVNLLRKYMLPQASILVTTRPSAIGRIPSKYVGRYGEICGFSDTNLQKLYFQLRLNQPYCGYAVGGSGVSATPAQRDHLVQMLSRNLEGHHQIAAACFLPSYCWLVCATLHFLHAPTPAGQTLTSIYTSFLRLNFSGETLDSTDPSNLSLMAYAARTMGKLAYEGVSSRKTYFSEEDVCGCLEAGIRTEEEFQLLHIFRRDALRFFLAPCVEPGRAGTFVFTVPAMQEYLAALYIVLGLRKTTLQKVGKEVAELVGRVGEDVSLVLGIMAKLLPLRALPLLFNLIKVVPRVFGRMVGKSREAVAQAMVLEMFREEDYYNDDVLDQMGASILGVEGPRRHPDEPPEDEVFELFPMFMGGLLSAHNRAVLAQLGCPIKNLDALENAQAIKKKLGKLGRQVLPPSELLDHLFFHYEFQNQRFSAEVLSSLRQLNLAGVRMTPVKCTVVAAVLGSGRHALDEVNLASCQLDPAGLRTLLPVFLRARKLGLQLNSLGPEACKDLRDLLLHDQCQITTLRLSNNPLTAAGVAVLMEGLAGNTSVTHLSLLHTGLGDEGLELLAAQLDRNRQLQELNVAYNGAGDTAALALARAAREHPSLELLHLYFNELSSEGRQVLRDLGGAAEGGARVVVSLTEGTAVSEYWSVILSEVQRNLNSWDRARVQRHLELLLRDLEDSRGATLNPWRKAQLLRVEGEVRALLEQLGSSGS
# UniProt P15559, whole entry, looked up: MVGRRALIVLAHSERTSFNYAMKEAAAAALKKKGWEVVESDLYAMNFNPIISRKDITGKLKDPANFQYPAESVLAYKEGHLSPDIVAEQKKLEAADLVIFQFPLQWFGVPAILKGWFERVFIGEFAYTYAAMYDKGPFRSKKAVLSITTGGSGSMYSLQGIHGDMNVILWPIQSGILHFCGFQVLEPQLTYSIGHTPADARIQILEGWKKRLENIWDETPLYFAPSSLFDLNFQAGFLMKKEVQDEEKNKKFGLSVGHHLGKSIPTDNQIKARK
# UniProt Q9NYR9: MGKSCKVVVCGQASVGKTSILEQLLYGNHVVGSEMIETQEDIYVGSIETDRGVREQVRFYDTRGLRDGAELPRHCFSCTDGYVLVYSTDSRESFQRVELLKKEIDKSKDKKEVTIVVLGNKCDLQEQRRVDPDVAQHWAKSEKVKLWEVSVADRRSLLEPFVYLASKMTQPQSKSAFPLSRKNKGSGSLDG
# UniProt O00567: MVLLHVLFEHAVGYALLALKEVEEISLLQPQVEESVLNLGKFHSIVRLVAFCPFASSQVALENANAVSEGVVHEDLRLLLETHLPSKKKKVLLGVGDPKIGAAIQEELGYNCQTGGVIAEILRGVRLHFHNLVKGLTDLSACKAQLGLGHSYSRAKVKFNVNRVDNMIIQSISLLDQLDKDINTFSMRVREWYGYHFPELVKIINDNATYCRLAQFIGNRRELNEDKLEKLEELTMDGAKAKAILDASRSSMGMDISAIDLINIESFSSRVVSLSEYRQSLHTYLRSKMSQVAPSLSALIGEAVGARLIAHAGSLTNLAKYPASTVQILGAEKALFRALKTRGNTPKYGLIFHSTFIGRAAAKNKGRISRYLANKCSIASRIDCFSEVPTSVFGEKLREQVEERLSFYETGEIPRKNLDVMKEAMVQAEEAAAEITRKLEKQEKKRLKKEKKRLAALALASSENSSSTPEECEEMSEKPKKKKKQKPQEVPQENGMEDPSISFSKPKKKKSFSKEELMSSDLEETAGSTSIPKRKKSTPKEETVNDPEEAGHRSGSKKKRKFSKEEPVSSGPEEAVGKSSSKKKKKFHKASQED
# The list shows a part of the results.
# Assays:
# Assay in all cases: log2 fold change, soluble protein after heating vs DMSO (PISA); higher = thermal stabilisation; K562 cells, 10 uM, 30 min; active = over 0.2 and 3.5 SD of the protein, either way, in both replicates (recomputed)
# [1] = compound: CS(=O)(=O)c1ccc(-c2cnc(N)c(C(=O)Nc3ccccc3)n2)cc1
# Summary of the method: (§1)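 K562 cells at 2×10^6 cells/mL were exposed to 10 μM compound for 30 min, then aliquots were heated for 3 min across 48°C-58°C, pooled, and extracted in PBS containing 0.5% NP-40 at 4°C. The supernatant after 21,000xg for 90 min was taken as soluble protein and measured by TMTpro 16plex LC-MS/MS with channel sums equalised. Thermal stability is reported relative to control samples, with values from duplicates. Fold changes are given on a log2 scale.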
# crizotinib = compound: C[C@@H](Oc1cc(-c2cnn(C3CCNCC3)c2)cnc1N)c1c(Cl)ccc(F)c1Cl [crizotinib]
# Summary of the method: as §1
# [2] = compound: C[C@@H]1COCCN1C2=NC(=NC(=C2)C3(CC3)S(=O)(=O)C)C4=C5C=CNC5=CC=C4
# Summary of the method: as §1
# [3] = compound: C[C@H](C1=CC=C(C=C1)C(=O)NC2=C3C=CNC3=NC=C2)N
# Summary of the method: as §1
# gandotinib = compound: Cc1cc(Nc2cc(CN3CCOCC3)c3nc(C)c(Cc4ccc(Cl)cc4F)n3n2)n[nH]1 [gandotinib]
# Summary of the method: as §1
# [4] = compound: Cc1cc(SCc2sc(-c3ccc(C(F)(F)F)cc3)nc2C)ccc1OCC(=O)O
# Summary of the method: as §1
# doramapimod = compound: Cc1ccc(-n2nc(C(C)(C)C)cc2NC(=O)Nc2ccc(OCCN3CCOCC3)c3ccccc23)cc1 [doramapimod]
# Summary of the method: as §1
# ispinesib = compound: Cc1ccc(C(=O)N(CCCN)[C@@H](c2nc3cc(Cl)ccc3c(=O)n2Cc2ccccc2)C(C)C)cc1 [ispinesib]
# Summary of the method: as §1
# bafetinib = compound: Cc1ccc(NC(=O)c2ccc(CN3CC[C@H](N(C)C)C3)c(C(F)(F)F)c2)cc1Nc1nccc(-c2cncnc2)n1 [bafetinib]
# Summary of the method: as §1
# [5] = compound: Cc1cccc(CC(=O)N2CCc3c2ccc(-c2cn(C)c4ncnc(N)c24)c3F)n1
# Summary of the method: as §1
# nilotinib = compound: Cc1cn(-c2cc(NC(=O)c3ccc(C)c(Nc4nccc(-c5cccnc5)n4)c3)cc(C(F)(F)F)c2)cn1 [nilotinib]
# Summary of the method: as §1
# [6] = compound: Cc1nc(Nc2n[nH]c3c2CN(C(=O)N[C@H](CN(C)C)c2ccccc2)C3(C)C)c2sccc2n1
# Summary of the method: as §1
# dasatinib = compound: Cc1nc(Nc2ncc(C(=O)Nc3c(C)cccc3Cl)s2)cc(N2CCN(CCO)CC2)n1 [dasatinib]
# Summary of the method: as §1
# [7] = compound: Cc1ncc(-c2ccnc(Nc3ccc(S(C)(=O)=O)cc3)n2)n1C(C)C
# Summary of the method: as §1
# [8] = compound: Cn1cc(-c2ccc3c(c2)CCN3C(=O)Cc2cccc(C(F)(F)F)c2)c2c(N)ncnc21
# Summary of the method: as §1
# [9] = compound: Cn1cc(-c2ccc3nnc(C(F)(F)c4ccc5ncccc5c4)n3n2)cn1
# Summary of the method: as §1
# tipifarnib = compound: Cn1cncc1[C@@](N)(c1ccc(Cl)cc1)c1ccc2c(c1)c(-c1cccc(Cl)c1)cc(=O)n2C [tipifarnib]
# Summary of the method: as §1
# mubritinib = compound: FC(F)(F)c1ccc(/C=C/c2nc(COc3ccc(CCCCn4ccnn4)cc3)co2)cc1 [mubritinib]
# Summary of the method: as §1
# duvelisib = compound: C[C@H](Nc1ncnc2nc[nH]c12)c1cc2cccc(Cl)c2c(=O)n1-c1ccccc1 [duvelisib]
# Summary of the method: as §1
# tozasertib = compound: Cc1cc(Nc2cc(N3CCN(C)CC3)nc(Sc3ccc(NC(=O)C4CC4)cc3)n2)n[nH]1 [tozasertib]
# Summary of the method: as §1
Target,log2 fold change [1],log2 fold change (crizotinib),log2 fold change [2],log2 fold change [3],log2 fold change (gandotinib),log2 fold change [4],log2 fold change (doramapimod),log2 fold change (ispinesib),log2 fold change (bafetinib),log2 fold change [5],log2 fold change (nilotinib),log2 fold change [6],log2 fold change (dasatinib),log2 fold change [7],log2 fold change [8],log2 fold change [9],log2 fold change (tipifarnib),log2 fold change (mubritinib),log2 fold change (duvelisib),log2 fold change (tozasertib)
NOB1 (UniProt Q9ULX3),inactive: 0.012,inactive: -0.142,inactive: -0.033,inactive: 0.15,inactive: 0.019,inactive: 0.113,inactive: 0,inactive: -0.038,inactive: 0.014,inactive: 0.093,inactive: -0.044,inactive: -0.005,inactive: -0.054,inactive: -0.045,inactive: -0.003,inactive: 0.059,inactive: -0.106,inactive: -0.043,,
NOL11 (UniProt Q9H8H0),inactive: -0.036,inactive: 0.084,inactive: -0.017,inactive: -0.041,inactive: -0.061,inactive: -0.015,inactive: -0.005,inactive: 0.097,inactive: -0.042,inactive: 0.017,inactive: -0.016,inactive: 0.017,inactive: 0.017,inactive: 0.11,inactive: -0.006,inactive: 0.001,inactive: 0.036,inactive: -0.012,,
NRF1 isoform 4 (UniProt Q16656),inactive: 0.03,inactive: 0.071,inactive: 0.275,inactive: -0.107,inactive: -0.125,inactive: 0.017,inactive: -0.003,inactive: -0.004,inactive: -0.057,inactive: 0.023,inactive: -0.099,inactive: -0.152,inactive: -0.123,inactive: -0.042,inactive: 0.054,inactive: -0.096,inactive: 0.022,inactive: 0.035,,
NOSIP (UniProt Q9Y314),inactive: 0.108,inactive: 0.329,inactive: -0.08,inactive: -0.03,inactive: -0.118,inactive: 0.257,inactive: -0.113,inactive: 0.133,inactive: 0.085,inactive: 0.066,inactive: -0.11,inactive: -0.277,inactive: -0.229,inactive: 0.247,inactive: -0.063,inactive: -0.111,inactive: -0.128,inactive: -0.098,,
NPC1 (UniProt O15118),inactive: 0.016,inactive: -0.132,inactive: 0.024,inactive: -0.102,inactive: 0.015,inactive: -0.038,inactive: -0.087,inactive: -0.148,active: -0.211,inactive: -0.02,inactive: 0.024,inactive: -0.017,inactive: -0.001,inactive: 0.05,inactive: 0.004,inactive: 0.012,inactive: 0.038,inactive: -0.027,,
NHLRC2 (UniProt Q8NBF2),inactive: 0.1,inactive: -0.127,inactive: 0.165,inactive: -0.011,inactive: -0.158,inactive: 0.044,inactive: -0.005,inactive: -0.198,inactive: -0.141,inactive: 0.002,inactive: -0.05,inactive: -0.004,inactive: -0.052,inactive: -0.001,inactive: 0.042,inactive: 0.006,inactive: -0.024,inactive: 0.058,,
NR2C1 (UniProt P13056),inactive: 0.027,inactive: -0.217,inactive: 0.071,,,,inactive: 0.015,,inactive: -0.298,,inactive: -0.004,inactive: -0.028,,inactive: 0.172,,,,inactive: 0.034,,
NOP58 (UniProt Q9Y2X3),inactive: 0.006,inactive: 0.047,inactive: -0.061,inactive: 0.242,inactive: 0.121,inactive: -0.001,inactive: 0.098,inactive: 0.103,inactive: 0.146,inactive: -0.154,inactive: 0.03,inactive: -0.194,inactive: 0.266,inactive: -0.142,inactive: -0.194,inactive: -0.093,inactive: 0.067,inactive: -0.071,,
NIPA1 (UniProt Q7RTP0),inactive: 0.044,inactive: 0.116,,inactive: -0.035,,inactive: 0.033,inactive: 0.029,inactive: 0.156,inactive: -0.06,,inactive: -0.012,inactive: -0.01,inactive: 0.048,inactive: -0.083,inactive: 0.038,inactive: 0.086,inactive: 0.067,inactive: -0.079,inactive: -0.008,inactive: 0.049
NOLC1 isoform 2 (UniProt Q14978),inactive: -0.019,inactive: -0.135,inactive: 0.141,inactive: -0.154,inactive: -0.023,inactive: -0.038,inactive: 0.047,inactive: 0.179,inactive: 0.105,inactive: -0.031,inactive: 0.1,inactive: -0.1,inactive: 0.145,active: -0.376,inactive: -0.013,inactive: 0.02,inactive: 0.027,inactive: -0.031,,
NFYC (UniProt Q13952),inactive: 0.022,inactive: 0.013,inactive: 0.054,inactive: 0.005,inactive: 0.002,inactive: 0.027,inactive: 0.001,inactive: 0.089,inactive: -0.017,inactive: -0.041,inactive: -0.024,inactive: -0.021,inactive: 0.032,inactive: -0.008,inactive: 0.014,inactive: 0.048,inactive: 0.038,inactive: 0.066,,
NLRX1 (UniProt Q86UT6),inactive: -0.062,inactive: 0.265,inactive: 0.037,,,,inactive: -0.564,,,,inactive: -0.13,inactive: 0.162,,inactive: -0.168,,,inactive: -0.13,,,inactive: -0.117
NSDHL (UniProt Q15738),inactive: 0.04,active: 0.314,inactive: 0.045,inactive: -0.105,inactive: 0.239,inactive: 0.058,active: 0.22,inactive: -0.016,inactive: 0.006,inactive: 0.014,inactive: 0.033,inactive: -0.021,inactive: 0.054,inactive: 0.001,inactive: 0.11,inactive: 0.133,inactive: 0.029,inactive: 0.164,,
NFATC3 (UniProt Q12968),inactive: -0.06,inactive: -0.179,inactive: 0.014,inactive: -0.04,inactive: -0.161,inactive: 0.091,inactive: 0.066,inactive: 0.256,inactive: 0.041,inactive: -0.064,inactive: -0.121,inactive: -0.316,inactive: -0.042,inactive: -0.3,inactive: -0.073,inactive: 0.191,inactive: 0.01,inactive: -0.01,,
NQO1 (UniProt P15559),inactive: 0.055,inactive: -0.004,inactive: 0.069,inactive: -0.06,inactive: -0.062,inactive: 0.152,inactive: -0.008,inactive: 0.05,inactive: 0.025,active: 0.365,inactive: -0.001,inactive: 0.003,inactive: -0.033,inactive: -0.022,inactive: 0.049,active: 0.291,inactive: -0.089,inactive: 0.025,,
NKIRAS2 (UniProt Q9NYR9),inactive: 0.09,inactive: -0.017,inactive: 0.015,,,,inactive: -0.079,,,,inactive: -0.082,inactive: -0.074,,inactive: 0.051,,,,inactive: -0.091,,inactive: -0.058
NR2C2AP isoform 2 (UniProt Q86WQ0),inactive: 0.085,inactive: 0.011,inactive: 0.138,inactive: 0.025,inactive: -0.035,inactive: 0.01,inactive: -0.17,active: 0.285,inactive: 0.037,inactive: 0.03,inactive: -0.072,inactive: 0.003,inactive: -0.095,inactive: -0.008,inactive: 0.028,inactive: -0.016,inactive: 0.007,inactive: 0.072,,
NOP56 (UniProt O00567),inactive: -0.101,inactive: -0.103,inactive: -0.338,inactive: 0.285,inactive: 0.064,inactive: 0,inactive: 0.178,inactive: 0.162,inactive: 0.225,inactive: -0.099,inactive: 0.098,inactive: -0.018,inactive: 0.204,inactive: -0.026,inactive: -0.371,inactive: -0.18,inactive: 0.201,inactive: -0.164,,

# Looked up one by one from the entries so far, two records:
Target,log2 fold change [1],log2 fold change (crizotinib),log2 fold change [2],log2 fold change [3],log2 fold change (gandotinib),log2 fold change [4],log2 fold change (doramapimod),log2 fold change (ispinesib),log2 fold change (bafetinib),log2 fold change [5],log2 fold change (nilotinib),log2 fold change [6],log2 fold change (dasatinib),log2 fold change [7],log2 fold change [8],log2 fold change [9],log2 fold change (tipifarnib),log2 fold change (mubritinib),log2 fold change (duvelisib),log2 fold change (tozasertib)
NRF1 isoform 4 (UniProt Q16656),inactive: 0.03,inactive: 0.071,inactive: 0.275,inactive: -0.107,inactive: -0.125,inactive: 0.017,inactive: -0.003,inactive: -0.004,inactive: -0.057,inactive: 0.023,inactive: -0.099,inactive: -0.152,inactive: -0.123,inactive: -0.042,inactive: 0.054,inactive: -0.096,inactive: 0.022,inactive: 0.035,,
NIPA1 (UniProt Q7RTP0),inactive: 0.044,inactive: 0.116,,inactive: -0.035,,inactive: 0.033,inactive: 0.029,inactive: 0.156,inactive: -0.06,,inactive: -0.012,inactive: -0.01,inactive: 0.048,inactive: -0.083,inactive: 0.038,inactive: 0.086,inactive: 0.067,inactive: -0.079,inactive: -0.008,inactive: 0.049
